# Where “and” joins values, the source holds several entries; their conditions need not be identical. Equal values may be shown once. This list was built around the results that the source calls inconclusive (neither active nor inactive); the mix of calls is not that of the screen. A potency beside an inconclusive call is a rough fit, not a confirmed value. Calls of active or inactive are those of the source. Unless noted, calls come from the whole dose curve.
# The chains behind the UniProt entries cited, without tags or fusion partners.
# UniProt P14416, whole entry, looked up: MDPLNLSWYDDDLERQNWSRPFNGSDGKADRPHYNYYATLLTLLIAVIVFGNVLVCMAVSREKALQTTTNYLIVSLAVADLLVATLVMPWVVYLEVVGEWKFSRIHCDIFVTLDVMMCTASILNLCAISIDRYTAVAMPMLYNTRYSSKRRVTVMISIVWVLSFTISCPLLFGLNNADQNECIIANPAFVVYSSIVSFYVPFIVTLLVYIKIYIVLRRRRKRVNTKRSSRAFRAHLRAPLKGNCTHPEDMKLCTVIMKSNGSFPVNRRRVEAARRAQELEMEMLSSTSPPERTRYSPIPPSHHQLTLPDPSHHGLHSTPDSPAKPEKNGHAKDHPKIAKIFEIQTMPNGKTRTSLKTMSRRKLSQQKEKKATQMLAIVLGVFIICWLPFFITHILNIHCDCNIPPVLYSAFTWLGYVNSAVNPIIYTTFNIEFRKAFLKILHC
# Target: Beta-2 adrenergic receptor (Homo sapiens) (UniProt P07550)
# Assay: Adrenergic beta2 receptor (ADRB2) small molecule agonists, cell-based qHTS assay (AID 1963593);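 for activation: CHO cells stably overexpressing human ADRB2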
# Conditions: CHO-ADRB2 cells, cAMP HTRF, 30 min; activation: at 92.4 µM (top of the series) unless noted
# Method in brief: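 CHO cells stably over-expressing ADRB2 were plated overnight at 37C, then dosed with compounds plus a stimulation mix containing 100uM IBMX and 25uM Ro-20-1724 for 0.5hr at room temperature. cAMP was measured by HTRF competition, 1hr.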
# % is set by controls: 0 for no effect and ±100 for the full control effect; potency is the fitted concentration of half-maximal effect.
SMILES,activation,Potency
O=C(O)c1ccccc1C(c1ccc(O)cc1)c1ccc(O)cc1,inconclusive: -35.7% and inconclusive: 6.04%,–
O=C(O)c1ccc(C(=O)O)cc1,inconclusive: -37.6%,–
COCN(COC)c1nc(N(COC)COC)nc(N(COC)COC)n1,inconclusive: 13.6%,"inconclusive: 6.11 µM [inhibitor, partial curve, poor fit]"
COC(C)COC(C)COC(C)CO (stereo not drawn),inconclusive: -11.8%,–
C=CC(=O)O,inconclusive: 12.7% [at 42.5 µM],–
CC(C)(C)CC(C)(C)N,inconclusive: -6.97%,–
CC(C)(C)c1cccc(C(C)(C)C)c1O,inconclusive: 7.6%,"inconclusive: 9.69 µM [inhibitor, single point]"
C[N+]1(CC2COC(c3ccccc3)(c3ccccc3)O2)CCCCC1 (stereo not drawn),inactive: 0.0566% [at 19 µM],–
O=C1C(c2[nH]c3ccccc3c2O)=Nc2ccccc21,–,"inactive and inconclusive: 7.5 µM [inhibitor, full curve, poor fit]"
CCOc1ccc(NC(=O)CC(C)=O)cc1,inconclusive: 17.6%,–
CC(CC(=O)O)CC(C)(C)C (stereo not drawn),–,"inconclusive: 2.74 µM [inhibitor, single point]"
OC/C(Br)=C(\Br)CO,–,"inconclusive: 0.121 µM [inhibitor, full curve, poor fit]"
CCCCC(CC)COC(=O)C(C#N)=C(c1ccccc1)c1ccccc1 (stereo not drawn),–,"inconclusive: 3.06 µM [inhibitor, partial curve, poor fit]"
CC(C)(C)c1cc(C=O)cc(C(C)(C)C)c1O,inconclusive: 11.1% [at 42.5 µM],–
Cc1ncc([N+](=O)[O-])n1C,inconclusive: -11.4%,–
O=S1(=O)N=C(O)c2ccccc21,inconclusive: 0.283% [at 42.5 µM],–
CCCCCCCCCCCCI,–,inactive

SMILES,activation,Potency
NCCCCCCN,inconclusive: 20.3%,–
OC(C#CCN1CCCC1)(c1ccccc1)c1ccccc1,inconclusive: 24.5% [at 42.5 µM],–
CC(=O)c1ccc(C)cc1,inconclusive: 66.1%,–
Clc1cc(Cl)nc(Cl)n1,–,"inconclusive: 61.9 µM [inhibitor, partial curve, poor fit]"
CCOC(=O)Cn1c(=O)sc2cccc(Cl)c21,inconclusive: -39.3%,–
CCCCNS(=O)(=O)c1ccccc1,–,inactive
COc1ccc(CCO)cc1,–,inactive
CCn1c2ccccc2c2ccccc21,inconclusive: -0.555%,–
CO,–,inactive
Nc1ccc(O)c(C(=O)O)c1,inconclusive: -14.7% [at 42.5 µM],–
COc1cccc(O)c1,–,inactive
CCCCCC/C(C=O)=C\c1ccccc1,inconclusive: 4.28%,–
CC(C)(C)C1CCCCC1O (stereo not drawn),inconclusive: 24.9%,–
O=C=NCc1cccc(CN=C=O)c1,inactive: 5.7% [at 19 µM],–
Cc1cccc(C(=O)O)c1,inconclusive: -0.964%,–
CO[C@@H]1COCC[C@@H]1N[C@@H]1CC[C@@](C(=O)N2CCc3ncc(C(F)(F)F)cc3C2)(C(C)C)C1,–,inactive

# Same assay, conditions: CHO-ADRB2 cells, cAMP HTRF, 30 min; at 92.4 µM (top of the series)
row,SMILES,activation
1,COC(C)COC(C)COC(C)CO (stereo not drawn),inactive: -0.264%
2,NCCCCCCN,inactive: -3.56%
3,CCCCCC/C(C=O)=C\c1ccccc1,inactive: 1.45%
4,Cc1cccc(C(=O)O)c1,inactive: -13.4%

# Target: D(2) dopamine receptor (Homo sapiens) (UniProt P14416)
# Assay: Dopamine D2 receptor (DRD2) small molecule agonists, cell-based qHTS assay (AID 1963594); note: nearly all actives have a fitted effect of over 35% in size
# Conditions: HEK293-DRD2 cAMP HTRF, agonist mode, 30 min; activation: at 92.4 µM (top of the series) unless noted
# Method in brief: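 cAMP accumulation in DRD2-HEK293 cells measured by HTRF after 1 h detection; compounds added 10 min before NKH477 (200nM […]) forskolin-analogue stimulation, 30 min at room temperature, with Ro20-1724 present at 0.1 mM final.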
SMILES,Potency,activation
CC(C)(C)CC(C)(C)N,inactive,–
CCCN(CCC)CCc1cccc2c1CC(=O)N2,active: 0.0619 µM,–
CC(CC(=O)O)CC(C)(C)C (stereo not drawn),inactive,–
CCCCCCCCCCCCI,active: 54.7 µM,–
Clc1cc(Cl)nc(Cl)n1,"inconclusive: 27.7 µM [rising, single point]",–
CC(C)COC(=O)c1ccccc1O,inactive,–
CCCCCC/C(C=O)=C\c1ccccc1,–,inconclusive: -27.1%
CC[N+](C)(C)c1cccc(O)c1,"inconclusive: 9.44 µM [rising, partial curve]",–

# Target: D(2) dopamine receptor (Homo sapiens) (UniProt P14416)
# Assay: Dopamine D2 receptor (DRD2) small molecule antagonists, cell-based qHTS assay (AID 1963595; active = well fitted inhibition curve with a large enough effect in the signal ratio in the repeat runs, with a control signal flat; inconclusive = weak or mixed curves, or effect the other way; the % refers to the signal ratio)
# Conditions: HEK293-DRD2 cAMP HTRF antagonist mode; activity change, negative = inhibition: at 92.4 µM (top of the series) unless noted
# Method in brief: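 Antagonist mode in DRD2-HEK293 cells: after compound addition with 0.1 mM Ro20-1724, cells received quinpirole (12 nM) and NKH477 (200 nM) for 30 min at room temperature; HTRF cAMP read after 1 h detection.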
SMILES,"activity change, negative = inhibition",Potency
CCCCC(CC)COC(=O)C(C#N)=C(c1ccccc1)c1ccccc1 (stereo not drawn),inconclusive: -20.3% [at 42.5 µM],–
Cc1ncc([N+](=O)[O-])n1C,inconclusive: -10.7%,–
O=S1(=O)N=C(O)c2ccccc21,–,inactive
Clc1cc(Cl)nc(Cl)n1,–,inactive
Nc1ccc(O)c(C(=O)O)c1,–,"inconclusive: 60.6 µM [cytotoxic] and inconclusive: 61.1 µM [cytotoxic, partial curve, poor fit]"
CO[C@@H]1COCC[C@@H]1N[C@@H]1CC[C@@](C(=O)N2CCc3ncc(C(F)(F)F)cc3C2)(C(C)C)C1,–,inactive

# Reprinted at random: two compounds from above.
SMILES,"activity change, negative = inhibition",Potency
Cc1ncc([N+](=O)[O-])n1C,inconclusive: -10.7%,–
Clc1cc(Cl)nc(Cl)n1,–,inactive

# From PubChem BioAssay (Tox21)
